The test addresses T1, CviR (Chromobacterium violaceum) (UniProt Q7NQP7).
T1 sequence: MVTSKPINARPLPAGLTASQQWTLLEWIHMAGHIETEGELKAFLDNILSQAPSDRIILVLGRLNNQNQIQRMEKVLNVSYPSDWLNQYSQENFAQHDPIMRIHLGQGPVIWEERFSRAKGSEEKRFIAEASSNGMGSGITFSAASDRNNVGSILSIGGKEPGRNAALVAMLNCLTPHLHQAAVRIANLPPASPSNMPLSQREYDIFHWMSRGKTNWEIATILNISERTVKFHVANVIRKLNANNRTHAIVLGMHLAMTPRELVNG
The test is described as follows: two-hybrid; yeast double-hybrid in S. cerevisiae AH109; VioS as prey (activation domain, pGADTK7), CviR as bait (DNA-binding domain, pGBKT7); growth on SD-WLHA (without leucine, tryptophan, histidine and adenine).

No constants are given. Whether binding was seen depends on the method and setting. Binding can be weak; no strength is given.

With VioS (Chromobacterium violaceum), the binding entry is listed as “binds”.

Source of the values: article PMC11019928.
